Measured values: patent publication US20140271478A1 (University of California, published 2014)
No constants are given. Whether binding was seen depends on the method and setting. Some entries that bind do so weakly or less than the wild type.

The chains behind the UniProt entries cited, without tags or fusion partners. Where a name states a change or a piece, a line headed by the entry shows the natural chain unless it says otherwise.
UniProt P06756: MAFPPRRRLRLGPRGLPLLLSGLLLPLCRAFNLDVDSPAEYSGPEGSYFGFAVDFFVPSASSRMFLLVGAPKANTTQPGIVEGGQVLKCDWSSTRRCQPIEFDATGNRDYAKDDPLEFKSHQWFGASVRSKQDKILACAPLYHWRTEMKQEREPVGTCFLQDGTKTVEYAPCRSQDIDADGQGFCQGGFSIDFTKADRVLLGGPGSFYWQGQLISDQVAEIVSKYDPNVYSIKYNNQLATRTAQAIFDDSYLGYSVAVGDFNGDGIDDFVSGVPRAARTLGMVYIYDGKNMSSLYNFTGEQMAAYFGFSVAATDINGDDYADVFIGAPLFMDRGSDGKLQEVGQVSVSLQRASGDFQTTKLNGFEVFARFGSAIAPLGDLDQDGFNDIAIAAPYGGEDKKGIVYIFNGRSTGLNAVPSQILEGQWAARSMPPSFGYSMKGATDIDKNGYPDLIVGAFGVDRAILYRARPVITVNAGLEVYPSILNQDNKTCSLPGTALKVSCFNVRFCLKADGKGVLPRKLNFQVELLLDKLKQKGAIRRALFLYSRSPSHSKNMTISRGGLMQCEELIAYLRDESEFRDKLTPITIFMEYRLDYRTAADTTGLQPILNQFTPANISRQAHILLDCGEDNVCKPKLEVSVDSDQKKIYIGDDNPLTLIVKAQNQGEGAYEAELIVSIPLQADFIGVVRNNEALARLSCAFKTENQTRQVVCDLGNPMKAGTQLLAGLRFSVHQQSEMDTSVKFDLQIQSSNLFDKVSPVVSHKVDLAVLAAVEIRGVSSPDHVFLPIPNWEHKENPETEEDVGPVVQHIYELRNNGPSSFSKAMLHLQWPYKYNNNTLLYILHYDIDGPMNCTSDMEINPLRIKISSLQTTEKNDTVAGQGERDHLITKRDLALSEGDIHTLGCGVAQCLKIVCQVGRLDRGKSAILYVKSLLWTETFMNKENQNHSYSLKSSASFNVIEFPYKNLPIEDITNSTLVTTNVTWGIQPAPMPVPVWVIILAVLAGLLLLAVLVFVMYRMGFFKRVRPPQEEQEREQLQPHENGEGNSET
UniProt P26012: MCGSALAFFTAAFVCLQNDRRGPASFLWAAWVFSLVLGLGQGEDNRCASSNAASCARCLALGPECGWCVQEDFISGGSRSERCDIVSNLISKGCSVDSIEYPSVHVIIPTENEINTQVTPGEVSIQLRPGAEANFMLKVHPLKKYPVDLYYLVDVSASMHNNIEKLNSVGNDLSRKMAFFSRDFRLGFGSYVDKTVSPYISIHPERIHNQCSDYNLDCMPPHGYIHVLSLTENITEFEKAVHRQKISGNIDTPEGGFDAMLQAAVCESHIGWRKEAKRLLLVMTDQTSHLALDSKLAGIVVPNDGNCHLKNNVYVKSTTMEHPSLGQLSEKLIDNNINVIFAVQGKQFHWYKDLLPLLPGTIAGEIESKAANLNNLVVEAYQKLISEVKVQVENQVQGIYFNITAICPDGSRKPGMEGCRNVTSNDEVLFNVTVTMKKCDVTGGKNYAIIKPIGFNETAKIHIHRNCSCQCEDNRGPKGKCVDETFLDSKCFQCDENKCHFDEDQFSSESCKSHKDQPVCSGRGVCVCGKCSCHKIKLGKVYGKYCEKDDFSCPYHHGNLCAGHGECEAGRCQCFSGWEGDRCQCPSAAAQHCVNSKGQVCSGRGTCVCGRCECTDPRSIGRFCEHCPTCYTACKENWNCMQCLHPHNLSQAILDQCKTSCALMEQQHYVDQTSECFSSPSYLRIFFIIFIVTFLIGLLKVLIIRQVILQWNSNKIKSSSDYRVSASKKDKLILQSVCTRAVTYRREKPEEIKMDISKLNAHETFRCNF

Tests used:
secreted αβ8 (αvβ8) = secreted αβ8 (αvβ8) (UniProt P06756); assay: immunoprecipitation
[1] = target: human integrin β8 in tissue of ITGB8 BAC transgenic mice (human) (UniProt P26012); assay: immunostaining of formalin fixed tissue
[2] = target: human integrin αβ8 (αvβ8) expressed on cells (human) (UniProt P06756); assay: immunostaining of formalin fixed cells
[3] = target: human integrin β8 in tissue of ITGB8 BAC transgenic mice (human) (UniProt P26012); assay: immunostaining of formalin fixed paraffin embedded tissue
[4] = target: human integrin αβ8 (αvβ8) expressed on cells (human) (UniProt P06756); assay: cell surface staining, flow cytometry
[5] = target: human integrin αβ8 (αvβ8) expressed on cells (human) (UniProt P06756); assay: immunostaining, 4F1 at 50-100 ug/ml
[6] = target: human integrin β8 in tissue of ITGB8 BAC transgenic mice (human) (UniProt P26012); assay: immunostaining, 4F1 at 50-100 ug/ml
[7] = target: human integrin β8 in tissue of ITGB8 BAC transgenic mice (human) (UniProt P26012); assay: immunostaining of formalin fixed paraffin embedded mouse brain
[8] = target: human integrin β8 in tissue of ITGB8 BAC transgenic mice (human) (UniProt P26012); assay: immunostaining, 6B9 at 25 ug/ml
[9] = target: human integrin αβ8 (αvβ8) expressed on cells (human) (UniProt P06756); assay: immunostaining of formalin fixed paraffin embedded human lung
[10] = target: human integrin β8 in tissue of ITGB8 BAC transgenic mice (human) (UniProt P26012); assay: immunostaining of formalin fixed paraffin embedded mouse lung

Measured: binding

B1: 11E8 antibody (antibody, V domains shown)
VH: EVQLQQSGPELMKTGASVKISCKATGYTFSSYWIEWVKQRPGHGLEWIGDILPGSGTTNYNEKFKGRATVTADRSSNTAYMQLSSLTYGDSAVYYCATWGWDTYWDQGTSVTVSS
VL: DIVMTQSPSSLSASLGDRVTISCSASQGISNYLNWYQQKPDGTVKLLIYYTSSLHSGVPSRFSGSGSGTDYSLTISNLEPEDIATYYCQQYSNLPYTFGGGTKLEIKR
notes: Mouse hybridoma antibody
binds: secreted αβ8 (αvβ8)

B2: 4F1 antibody (antibody, V domains shown)
VH: QVQLQQSGAELVRPGTSVKVSCKASGYAFTNYLIEWVKQRPGQGLEWIGVINPGTGGTNYNKKFKVKATLTADKSSSTAYMQLGGLTFDDSAVYFCAREGNARTYYYAMDYWGQGTSVTVSS
VL: DIEMTQTPASLSASVGETVTITCRASENIYSYLVWYQQKQGKSPQVLVYNAKTLAEGVPSRFSGSGSGTQFSLKINSLQPEDFGSYYCQHHNGTPYTFGGGTKLEIKR
notes: Hybridoma antibody; also called hybridoma clone 4F1
binds: [1] | [2] | [3] | [4] | [5] | [6]

B3: 6B9 antibody (antibody, V domains shown)
VH: QVQLQQSGAELVRPGTSVKVSCKASGYAFTDYLIEWVKQRPGQGLEWIGVINPETGGTNYNAKFKGKATLTADKSSSSAYMQLSSLTSGDSAVYFCAREAGNYIYAMDYWGQGTSVTVSS
VL: DIQMTQSPASLSASVGETVTITCRASVNIYSYLVWYQQKQGKSPQLLVHNAKTLAEGVPSRFSGSGSGTQFSLKINSLQPEDFGSYYCQHHHGTPYTFGGGTKLEIKR
notes: Hybridoma antibody; also called hybridoma clone 6B9
binds: [1] | [3] | [7] | [8]

B4: recombinant monoclonal rabbit IgG derived from the variable domains of clone 4F1 (antibody, V domains shown)
VH: QVQLQQSGAELVRPGTSVKVSCKASGYAFTNYLIEWVKQRPGQGLEWIGVINPGTGGTNYNKKFKVKATLTADKSSSTAYMQLGGLTFDDSAVYFCAREGNARTYYYAMDYWGQGTSVTVSS
VL: DIEMTQTPASLSASVGETVTITCRASENIYSYLVWYQQKQGKSPQVLVYNAKTLAEGVPSRFSGSGSGTQFSLKINSLQPEDFGSYYCQHHNGTPYTFGGGTKLEIKR
binds: [9] | [3] | [10]
